# Results taken from article PMC13187025.
# No constants are given. Whether binding was seen depends on the method and setting. In cells and extracts the contact can be indirect. Some binding calls cover weakened binding; strength is not graded here. For part of these data: Tags and fused reporters may be left off the sequences shown.
# T1: IRS2-S2A (S731A and S736A) with a C-terminal FLAG tag (human) (UniProt Q9Y4H2)
# T1 sequence: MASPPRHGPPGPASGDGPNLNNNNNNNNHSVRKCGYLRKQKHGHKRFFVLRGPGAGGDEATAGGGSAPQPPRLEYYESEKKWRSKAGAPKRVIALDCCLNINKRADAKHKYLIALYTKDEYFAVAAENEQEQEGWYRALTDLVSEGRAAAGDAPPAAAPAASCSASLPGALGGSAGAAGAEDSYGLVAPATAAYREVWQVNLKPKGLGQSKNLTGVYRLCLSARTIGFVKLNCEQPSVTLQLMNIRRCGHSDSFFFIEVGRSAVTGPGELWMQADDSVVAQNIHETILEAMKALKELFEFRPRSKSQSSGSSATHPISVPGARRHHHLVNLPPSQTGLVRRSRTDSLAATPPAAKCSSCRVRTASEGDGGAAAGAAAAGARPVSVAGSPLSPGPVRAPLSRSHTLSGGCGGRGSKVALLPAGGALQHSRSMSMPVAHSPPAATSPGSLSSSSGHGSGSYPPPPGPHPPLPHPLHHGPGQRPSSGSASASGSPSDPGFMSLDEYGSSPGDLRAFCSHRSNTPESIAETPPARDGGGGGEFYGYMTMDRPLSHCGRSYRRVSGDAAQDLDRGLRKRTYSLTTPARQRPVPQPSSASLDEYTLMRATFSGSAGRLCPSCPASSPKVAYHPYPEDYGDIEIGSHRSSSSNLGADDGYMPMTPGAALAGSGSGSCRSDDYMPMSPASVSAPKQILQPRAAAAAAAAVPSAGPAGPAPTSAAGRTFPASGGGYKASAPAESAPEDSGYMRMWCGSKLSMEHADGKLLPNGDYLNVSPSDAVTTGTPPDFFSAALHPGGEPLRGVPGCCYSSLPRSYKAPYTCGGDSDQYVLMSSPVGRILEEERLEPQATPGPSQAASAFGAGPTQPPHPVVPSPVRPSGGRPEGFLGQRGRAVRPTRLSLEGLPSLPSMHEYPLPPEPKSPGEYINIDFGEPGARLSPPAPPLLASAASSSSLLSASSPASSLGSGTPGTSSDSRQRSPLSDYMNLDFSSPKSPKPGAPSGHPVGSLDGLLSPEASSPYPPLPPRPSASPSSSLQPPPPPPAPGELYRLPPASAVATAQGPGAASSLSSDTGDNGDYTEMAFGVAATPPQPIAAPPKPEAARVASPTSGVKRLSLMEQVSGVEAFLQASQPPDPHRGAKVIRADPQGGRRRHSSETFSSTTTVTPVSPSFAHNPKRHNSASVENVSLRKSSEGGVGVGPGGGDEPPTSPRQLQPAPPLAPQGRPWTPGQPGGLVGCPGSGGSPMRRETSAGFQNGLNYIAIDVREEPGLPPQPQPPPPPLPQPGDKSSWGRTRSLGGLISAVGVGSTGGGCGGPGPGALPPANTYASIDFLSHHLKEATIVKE
# T2: DFN-IRS2 (endogenous IRS2 with mNeonGreen and FLAG tags at the N-terminus) (human (endogenous in SUM-159)) (UniProt Q9Y4H2)
# T2 sequence: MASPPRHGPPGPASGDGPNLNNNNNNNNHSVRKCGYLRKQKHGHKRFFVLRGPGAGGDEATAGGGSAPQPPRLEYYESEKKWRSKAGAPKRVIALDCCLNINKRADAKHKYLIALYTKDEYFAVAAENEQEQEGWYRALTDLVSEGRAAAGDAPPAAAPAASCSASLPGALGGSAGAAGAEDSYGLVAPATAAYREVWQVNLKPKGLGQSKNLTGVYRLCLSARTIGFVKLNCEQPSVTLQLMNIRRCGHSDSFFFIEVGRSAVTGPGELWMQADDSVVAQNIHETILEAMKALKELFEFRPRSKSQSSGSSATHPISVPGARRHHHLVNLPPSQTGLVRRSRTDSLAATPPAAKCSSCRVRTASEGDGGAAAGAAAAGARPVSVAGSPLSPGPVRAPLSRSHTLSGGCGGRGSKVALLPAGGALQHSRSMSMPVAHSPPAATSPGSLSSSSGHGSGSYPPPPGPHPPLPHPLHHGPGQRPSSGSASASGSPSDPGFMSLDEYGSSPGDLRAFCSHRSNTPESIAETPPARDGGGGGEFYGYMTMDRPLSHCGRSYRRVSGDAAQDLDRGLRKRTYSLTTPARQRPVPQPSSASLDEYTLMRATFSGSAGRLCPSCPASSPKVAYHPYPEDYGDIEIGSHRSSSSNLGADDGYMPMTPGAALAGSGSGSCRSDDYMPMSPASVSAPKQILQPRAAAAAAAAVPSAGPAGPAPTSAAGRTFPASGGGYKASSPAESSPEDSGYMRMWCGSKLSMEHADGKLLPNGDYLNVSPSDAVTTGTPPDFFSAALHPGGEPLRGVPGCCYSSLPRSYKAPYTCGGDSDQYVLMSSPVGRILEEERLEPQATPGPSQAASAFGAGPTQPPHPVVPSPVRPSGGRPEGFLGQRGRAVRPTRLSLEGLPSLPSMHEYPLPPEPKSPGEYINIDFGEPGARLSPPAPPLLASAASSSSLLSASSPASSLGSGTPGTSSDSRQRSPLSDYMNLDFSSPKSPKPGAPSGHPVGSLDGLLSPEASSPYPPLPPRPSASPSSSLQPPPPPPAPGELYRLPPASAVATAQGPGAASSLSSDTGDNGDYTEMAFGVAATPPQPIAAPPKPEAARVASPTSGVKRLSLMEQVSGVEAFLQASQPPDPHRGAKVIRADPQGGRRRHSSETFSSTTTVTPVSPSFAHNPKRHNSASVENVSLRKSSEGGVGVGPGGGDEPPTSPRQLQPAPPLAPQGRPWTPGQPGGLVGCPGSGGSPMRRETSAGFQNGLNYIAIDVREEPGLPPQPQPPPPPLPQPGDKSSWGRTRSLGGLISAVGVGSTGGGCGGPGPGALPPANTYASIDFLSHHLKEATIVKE
# T3: IRS2-WT with a C-terminal FLAG tag (human) (UniProt Q9Y4H2)
# T3 sequence: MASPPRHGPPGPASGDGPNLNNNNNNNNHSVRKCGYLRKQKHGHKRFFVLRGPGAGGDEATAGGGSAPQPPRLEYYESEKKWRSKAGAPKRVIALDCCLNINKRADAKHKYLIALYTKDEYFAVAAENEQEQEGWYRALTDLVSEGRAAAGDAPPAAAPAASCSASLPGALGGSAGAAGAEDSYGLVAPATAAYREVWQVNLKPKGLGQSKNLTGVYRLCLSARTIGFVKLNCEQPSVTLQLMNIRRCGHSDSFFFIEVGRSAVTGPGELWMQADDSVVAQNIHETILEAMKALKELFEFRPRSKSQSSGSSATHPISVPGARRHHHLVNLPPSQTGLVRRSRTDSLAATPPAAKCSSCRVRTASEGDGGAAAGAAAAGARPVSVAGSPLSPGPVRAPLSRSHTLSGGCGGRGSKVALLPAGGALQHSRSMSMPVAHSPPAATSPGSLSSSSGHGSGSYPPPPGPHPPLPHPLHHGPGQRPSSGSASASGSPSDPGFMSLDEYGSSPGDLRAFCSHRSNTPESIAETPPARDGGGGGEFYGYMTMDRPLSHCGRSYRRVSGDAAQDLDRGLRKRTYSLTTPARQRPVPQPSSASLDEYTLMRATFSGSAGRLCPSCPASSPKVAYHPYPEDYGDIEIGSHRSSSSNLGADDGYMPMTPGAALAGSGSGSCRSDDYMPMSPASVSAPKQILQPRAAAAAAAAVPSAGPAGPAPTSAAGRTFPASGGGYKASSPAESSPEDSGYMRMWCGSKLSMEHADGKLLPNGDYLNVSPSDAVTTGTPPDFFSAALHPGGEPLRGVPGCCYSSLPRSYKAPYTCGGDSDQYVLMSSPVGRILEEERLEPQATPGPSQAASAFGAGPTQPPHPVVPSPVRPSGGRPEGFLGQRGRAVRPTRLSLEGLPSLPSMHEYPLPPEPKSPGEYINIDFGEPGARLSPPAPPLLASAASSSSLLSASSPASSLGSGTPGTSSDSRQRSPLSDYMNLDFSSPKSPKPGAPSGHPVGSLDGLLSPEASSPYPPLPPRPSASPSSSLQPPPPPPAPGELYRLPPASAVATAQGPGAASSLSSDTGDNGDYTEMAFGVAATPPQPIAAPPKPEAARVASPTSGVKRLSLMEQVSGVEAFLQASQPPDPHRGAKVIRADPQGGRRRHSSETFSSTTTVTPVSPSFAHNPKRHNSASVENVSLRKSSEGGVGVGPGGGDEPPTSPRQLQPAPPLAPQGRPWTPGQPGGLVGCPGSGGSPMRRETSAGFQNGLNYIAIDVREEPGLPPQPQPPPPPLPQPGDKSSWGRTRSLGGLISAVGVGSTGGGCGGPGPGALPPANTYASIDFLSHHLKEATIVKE
# Legend:
# [1] = target: T1, IRS2-S2A (S731A and S736A) with a C-terminal FLAG tag (human); experiment: proximity ligation; Duolink In Situ Red kit with mouse anti-FLAG and rabbit anti-PLK1 on fixed, permeabilized SUM-159 cells; nocodazole 50 ng/ml for 20 h, released 30 min
# [2] = target: T2, DFN-IRS2 (endogenous IRS2 with mNeonGreen and FLAG tags at the N-terminus) (human (endogenous in SUM-159)); experiment: as above
# [3] = target: T3, IRS2-WT with a C-terminal FLAG tag (human); experiment: as above
# [4] = target: T1, IRS2-S2A (S731A and S736A) with a C-terminal FLAG tag (human); experiment: co-IP; IRS2 constructs immunoprecipitated (FLAG-specific antibodies in Fig. 5C) from extracts of cells synchronized by thymidine/release (T/R; G2/M) or thymidine/release/nocodazole and shake-off (T/R/N; M); blotted for PLK1
# [5] = target: T3, IRS2-WT with a C-terminal FLAG tag (human); experiment: as above
# [6] = target: Polo like kinase 1 (PLK1), endogenous (human (endogenous in SUM-159 and MDA-MB-231)) (UniProt P53350); experiment: co-IP; endogenous proteins; extracts of mitotic SUM-159 and MDA-MB-231 cells (nocodazole 90 ng/ml, 16 h) immunoprecipitated with PLK1-specific antibodies; also SUM-159 cells synchronized by thymidine/release/nocodazole, and with the PLK1 inhibitor BI6727
binding [1],binding [2],binding [3],binding [4],binding [5],binding [6],Molecule
binds weakly,binds,binds,binds weakly,binds,–,"Polo like kinase 1 (PLK1), endogenous (from UniProt P53350 1-603) (enzyme)"
–,–,–,–,–,binds,"Insulin receptor substrate 2 (IRS2), endogenous (protein, UniProt Q9Y4H2 1-1338) MASPPRHGPPGPASGDGPNLNNNNNNNNHSVRKCGYLRKQKHGHKRFFVLRGPGAGGDEATAGGGSAPQPPRLEYYESEKKWRSKAGAPKRVIALDCCLNINKRADAKHKYLIALYTKDEYFAVAAENEQEQEGWYRALTDLVSEGRAAAGDAPPAAAPAASCSASLPGALGGSAGAAGAEDSYGLVAPATAAYREVWQVNLKPKGLGQSKNLTGVYRLCLSARTIGFVKLNCEQPSVTLQLMNIRRCGHSDSFFFIEVGRSAVTGPGELWMQADDSVVAQNIHETILEAMKALKELFEFRPRSKSQSSGSSATHPISVPGARRHHHLVNLPPSQTGLVRRSRTDSLAATPPAAKCSSCRVRTASEGDGGAAAGAAAAGARPVSVAGSPLSPGPVRAPLSRSHTLSGGCGGRGSKVALLPAGGALQHSRSMSMPVAHSPPAATSPGSLSSSSGHGSGSYPPPPGPHPPLPHPLHHGPGQRPSSGSASASGSPSDPGFMSLDEYGSSPGDLRAFCSHRSNTPESIAETPPARDGGGGGEFYGYMTMDRPLSHCGRSYRRVSGDAAQDLDRGLRKRTYSLTTPARQRPVPQPSSASLDEYTLMRATFSGSAGRLCPSCPASSPKVAYHPYPEDYGDIEIGSHRSSSSNLGADDGYMPMTPGAALAGSGSGSCRSDDYMPMSPASVSAPKQILQPRAAAAAAAAVPSAGPAGPAPTSAAGRTFPASGGGYKASSPAESSPEDSGYMRMWCGSKLSMEHADGKLLPNGDYLNVSPSDAVTTGTPPDFFSAALHPGGEPLRGVPGCCYSSLPRSYKAPYTCGGDSDQYVLMSSPVGRILEEERLEPQATPGPSQAASAFGAGPTQPPHPVVPSPVRPSGGRPEGFLGQRGRAVRPTRLSLEGLPSLPSMHEYPLPPEPKSPGEYINIDFGEPGARLSPPAPPLLASAASSSSLLSASSPASSLGSGTPGTSSDSRQRSPLSDYMNLDFSSPKSPKPGAPSGHPVGSLDGLLSPEASSPYPPLPPRPSASPSSSLQPPPPPPAPGELYRLPPASAVATAQGPGAASSLSSDTGDNGDYTEMAFGVAATPPQPIAAPPKPEAARVASPTSGVKRLSLMEQVSGVEAFLQASQPPDPHRGAKVIRADPQGGRRRHSSETFSSTTTVTPVSPSFAHNPKRHNSASVENVSLRKSSEGGVGVGPGGGDEPPTSPRQLQPAPPLAPQGRPWTPGQPGGLVGCPGSGGSPMRRETSAGFQNGLNYIAIDVREEPGLPPQPQPPPPPLPQPGDKSSWGRTRSLGGLISAVGVGSTGGGCGGPGPGALPPANTYASIDFLSHHLKEATIVKE"
